These are yes or no findings as the source states them, for the method shown. In cells and extracts the contact can be indirect. Some results given as binding are weak or reduced against the parent protein; the word gives no strength. For some of these results: Sequences can lack the tags named with a protein.
Key:
[1] = target: T1, GFP-CRN7 WT (human Coronin7, full length, GFP on its N-terminus) (human) (UniProt P57737); assay: co-IP; lysates of HEK293T cells transiently co-expressing GFP-CRN7 (or GFP) and Myc-tagged Cdc42 CA or DN; GFP microbeads; Cdc42 detected with anti-Myc mAb 9E10
T1 sequence: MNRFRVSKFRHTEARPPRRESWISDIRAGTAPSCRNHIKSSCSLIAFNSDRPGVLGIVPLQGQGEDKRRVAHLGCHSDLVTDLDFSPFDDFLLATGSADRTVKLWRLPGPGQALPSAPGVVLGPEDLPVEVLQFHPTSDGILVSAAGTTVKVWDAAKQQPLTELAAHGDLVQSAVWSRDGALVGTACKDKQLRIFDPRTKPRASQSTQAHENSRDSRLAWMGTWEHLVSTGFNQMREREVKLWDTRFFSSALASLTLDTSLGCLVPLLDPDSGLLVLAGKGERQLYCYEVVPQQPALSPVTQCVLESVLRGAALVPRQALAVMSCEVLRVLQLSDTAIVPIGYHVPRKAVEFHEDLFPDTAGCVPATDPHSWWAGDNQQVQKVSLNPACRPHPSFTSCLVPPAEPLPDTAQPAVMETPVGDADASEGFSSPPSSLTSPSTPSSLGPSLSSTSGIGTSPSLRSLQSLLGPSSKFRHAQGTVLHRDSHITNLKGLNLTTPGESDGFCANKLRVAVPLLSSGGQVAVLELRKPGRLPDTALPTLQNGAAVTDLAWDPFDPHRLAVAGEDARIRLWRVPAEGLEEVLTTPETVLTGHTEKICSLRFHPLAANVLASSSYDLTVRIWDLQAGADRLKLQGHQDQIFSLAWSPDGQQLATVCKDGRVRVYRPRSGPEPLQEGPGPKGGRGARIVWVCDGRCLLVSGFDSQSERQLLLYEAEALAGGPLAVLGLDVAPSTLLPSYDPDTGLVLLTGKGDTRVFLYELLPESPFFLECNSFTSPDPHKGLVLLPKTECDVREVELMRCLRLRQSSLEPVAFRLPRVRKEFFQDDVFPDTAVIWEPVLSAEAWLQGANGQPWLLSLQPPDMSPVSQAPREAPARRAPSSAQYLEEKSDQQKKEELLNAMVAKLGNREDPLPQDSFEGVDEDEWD

Chains of the proteins cited; added tags and fusions are not shown. Lines headed by an entry give the natural chain unless they say otherwise; changes in a name come on top.
UniProt P60953: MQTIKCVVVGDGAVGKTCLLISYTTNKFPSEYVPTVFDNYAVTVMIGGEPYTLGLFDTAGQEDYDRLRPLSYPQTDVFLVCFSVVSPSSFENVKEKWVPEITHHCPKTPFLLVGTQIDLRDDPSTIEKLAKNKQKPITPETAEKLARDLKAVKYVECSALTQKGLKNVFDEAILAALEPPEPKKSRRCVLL
UniProt O00401: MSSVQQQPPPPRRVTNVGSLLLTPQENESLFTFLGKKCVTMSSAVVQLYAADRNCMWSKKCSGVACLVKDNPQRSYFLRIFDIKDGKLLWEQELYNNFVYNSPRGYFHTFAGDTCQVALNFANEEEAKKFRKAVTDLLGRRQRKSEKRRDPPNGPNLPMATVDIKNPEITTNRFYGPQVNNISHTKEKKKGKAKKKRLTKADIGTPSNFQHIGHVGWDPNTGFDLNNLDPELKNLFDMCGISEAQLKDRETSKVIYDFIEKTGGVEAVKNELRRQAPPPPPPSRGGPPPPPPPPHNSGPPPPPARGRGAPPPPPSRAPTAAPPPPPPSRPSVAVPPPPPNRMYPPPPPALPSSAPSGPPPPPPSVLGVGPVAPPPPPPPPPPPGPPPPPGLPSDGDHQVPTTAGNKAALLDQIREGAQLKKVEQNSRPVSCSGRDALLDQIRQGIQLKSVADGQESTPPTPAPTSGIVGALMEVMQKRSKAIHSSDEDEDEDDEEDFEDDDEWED

[2] = target: T1, GFP-CRN7 WT (human Coronin7, full length, GFP on its N-terminus) (human); assay: co-IP; GFP microbeads precipitate GFP-CRN7 or its NT and CT fragments from HEK293T cell extracts; endogenous N-WASP detected with rabbit polyclonal anti-N-WASP
[3] = target: GST-Cdc42 dominant negative (DN/T17N), preloaded with GDP (UniProt P60953); assay: pull-down; Glutathione-Sepharose beads coated with GST alone or GST-GTPase fusions pre-loaded with GDP (DN) or GTPγS (CA), incubated with lysates of HEK293T cells expressing GFP-CRN7 WT or CRIB mutants; blot with GFP mAb K3-184-2 or anti-N-WASP; ImageJ quantification, input set at 100%; only the target purified
[4] = target: GST-Cdc42 constitutively active (CA/Q61L), preloaded with GTPγS (UniProt P60953); assay: as above

Substance | binding [1] | binding [2] | binding [3] | binding [4]
Myc-tagged Cdc42 DN (T17N) (from UniProt P60953 1-191) (enzyme) | binds | – | – | –
endogenous N-WASP (neural WASP) of HEK293T cells (from UniProt O00401 1-505) | – | binds | no binding | binds

From article PMC4855144
